# In patent US20190262343A1, “WOUND HEALING USING BRAF INHIBITORS” (THE REGENTS OF THE UNIVERSITY OF CALIFORNIA, priority 2016, published 2019):
# At least one structure is not confirmed: it was looked up by name or label, or the drawing left a doubt.
# Assays:
# dorsal skin wounds = assay: Histological analysis (H&E) of incisional wounds; format: in vivo, mice
# Source text: Dorsal skin wounds from CH3 mice treated with vemurafenib suspension or DMSO in saline control suspension were excised at day 2, 6 and 14. They were fixed in 10% neutral buffered formalin and embedded in paraffin and stained with hematoxylin and eosin (H&E) using standard methods. Balb/c mice were sacrificed at day 2, 6 and 14 with isoflurane overdose. Two 8-mm round pieces of tissue were collected from each Balbc/c mouse containing the whole wound area and the surrounding tissue and skin, cut precisely in half at the midline of the wound and fixed in 1% paraformaldehyde (PFA) for 16-18 hours at 4° C., dehydrated in 70% EtOH, and then paraffin embedded. Sections were cut at 4 μm, deparaffinized with xylene and descendant ethanol, and then incubated in 3% H2O2 for 10 minutes. After a wash in distilled water, the slides were incubated for 25 minutes in citrate buffer pH6 (Invitrogen) at 95° C. using a vegetable steamer. The slides were brought to room temperature, rinsed in PBST (Phosphate Buffered Saline containing 0.05% Tween-20), and then incubated at room temperature with 1:100 anti-mouse Ki-67 antibody (DAKO, Carpinteria, Calif.) for 1 hour and 1:10 phospho-ERK Ab (Cell Signaling), overnight. The Ki67 stained slides were rinsed with PBST and incubated at room temperature with 1:200 polyclonal Rabbit anti-rat immunoglobulin/Biotinylated Ab (Dako, E0468) for 30 minutes. All the slides were rinsed with PBST, and incubated with Dako EnVision+ System-HRP Labelled Polymer Anti-Rabbit (Dako) at room temperature for 30 minutes. After a rinse with PBST, the slides were incubated with DAB (3,3′-Diaminobenzidine) for visualization. Subsequently, the slides were washed in tap water, counterstained with Harris' Hematoxylin, dehydrated in ethanol, and mounted with media. The imaging and quantification of the cell-based immunohistochemistry, was performed with the HALO Next Generation Imaging analysis software (Indica Labs; Corrales, N. Mex.). HALO measures and reports individual cell data maintaining an interactive link between cell metrics and cell imagery. The number of pERK+, Ki67+ and PECAM-1+ cells was automatically counted with the HALO software. Three 20× fields of view from each side of the wound were automatically counted for pERK and Ki67 stains. PECAM-1+ and CD68+ cells were automatically counted on each side of the wound edges where the granulation tissue starts (1 mm length each side) on the excisional wound splinting model, and in the entire wound area on the incisional wound model.
# The area of the wounds and their surroundings were analyzed histologically by two pathologists blinded to the study groups.
# The area of the wounds and their surroundings were analyzed histologically by H&E staining by two pathologists and the extent of epidermal hyperplasia on both sides of the healing wounds was measured on days 1, 2 and 6 post-treatment (FIGS. 6A and 6B).
# [1] = test system: CD68+, IL-6+, COX-2+, PECAM-1+ cells; assay: Immunohistochemistry of incisional wounds (CD68, IL-6, COX-2, PECAM-1); format: in vivo, mice; details: incisional wound model
# Source text: Dorsal skin wounds from CH3 mice treated with vemurafenib suspension or DMSO in saline control suspension were excised at day 2, 6 and 14. They were fixed in 10% neutral buffered formalin and embedded in paraffin and stained with hematoxylin and eosin (H&E) using standard methods. Balb/c mice were sacrificed at day 2, 6 and 14 with isoflurane overdose. Two 8-mm round pieces of tissue were collected from each Balbc/c mouse containing the whole wound area and the surrounding tissue and skin, cut precisely in half at the midline of the wound and fixed in 1% paraformaldehyde (PFA) for 16-18 hours at 4° C., dehydrated in 70% EtOH, and then paraffin embedded. Sections were cut at 4 μm, deparaffinized with xylene and descendant ethanol, and then incubated in 3% H2O2 for 10 minutes. […] The imaging and quantification of the cell-based immunohistochemistry, was performed with the HALO Next Generation Imaging analysis software (Indica Labs; Corrales, N. Mex.). […] The number of pERK+, Ki67+ and PECAM-1+ cells was automatically counted with the HALO software. Three 20× fields of view from each side of the wound were automatically counted for pERK and Ki67 stains. PECAM-1+ and CD68+ cells were automatically counted on each side of the wound edges where the granulation tissue starts (1 mm length each side) on the excisional wound splinting model, and in the entire wound area on the incisional wound model. […]
compound,measurement,setting,value
CC(=O)Nc1cccc(-n2c(=O)n(C3CC3)c(=O)c3c(Nc4ccc(I)cc4F)n(C)c(=O)c(C)c32)c1 [trametinib],wound-adjacent / peri-lesional epidermal hyperplasia (FIG. 6A),dorsal skin wounds; 2 days post-incision,slight peri-lesional hyperplasia
same,dermal reparative fibrosis,dorsal skin wounds; by day 6,no evidence of dermal reparative fibrosis
same,"re-epithelialization, in words",dorsal skin wounds; by day 6,No re-epithelialization
same,repair / re-epithelialization (FIG. 6A),dorsal skin wounds; day 6,no evidence of repair
same,re-epithelialization (FIG. 3D),dorsal skin wounds; incisional wounds,no re-epithelialization was observed
same,signs of healing or re-epithelialization,"dorsal skin wounds; incisional wounds, wounds were ulcerated",No signs of healing or re-epithelialization
same,PECAM-1+ cells with trametinib alone,[1],completely depleted the number of PECAM-1+ cells
